The supplement of paper PMC10849652
The other results are listed elsewhere or left out.

Amino acid sequences for entries named in this document (tags omitted). A change or cut given only in a name is not applied to a line headed by its entry.
UniProt Q13526, whole entry, looked up: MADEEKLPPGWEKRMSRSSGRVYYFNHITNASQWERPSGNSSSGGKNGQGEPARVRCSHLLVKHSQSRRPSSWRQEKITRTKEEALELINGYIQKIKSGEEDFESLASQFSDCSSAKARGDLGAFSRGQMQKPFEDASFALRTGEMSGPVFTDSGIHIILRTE
UniProt Q96S52: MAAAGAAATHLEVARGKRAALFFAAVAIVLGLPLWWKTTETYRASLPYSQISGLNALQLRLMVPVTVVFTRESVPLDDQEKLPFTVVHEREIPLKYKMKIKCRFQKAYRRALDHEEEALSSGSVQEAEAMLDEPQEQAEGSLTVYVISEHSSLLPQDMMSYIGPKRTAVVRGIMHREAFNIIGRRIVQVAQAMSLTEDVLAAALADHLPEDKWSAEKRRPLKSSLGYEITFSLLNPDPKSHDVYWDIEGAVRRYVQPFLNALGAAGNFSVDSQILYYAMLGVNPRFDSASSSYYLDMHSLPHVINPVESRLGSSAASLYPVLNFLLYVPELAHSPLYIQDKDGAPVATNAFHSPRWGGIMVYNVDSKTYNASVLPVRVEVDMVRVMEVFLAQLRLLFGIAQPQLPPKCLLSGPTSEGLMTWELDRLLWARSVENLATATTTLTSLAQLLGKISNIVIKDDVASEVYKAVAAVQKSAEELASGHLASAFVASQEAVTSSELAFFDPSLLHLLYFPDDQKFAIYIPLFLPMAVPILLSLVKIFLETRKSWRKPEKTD
UniProt Q9BTU6: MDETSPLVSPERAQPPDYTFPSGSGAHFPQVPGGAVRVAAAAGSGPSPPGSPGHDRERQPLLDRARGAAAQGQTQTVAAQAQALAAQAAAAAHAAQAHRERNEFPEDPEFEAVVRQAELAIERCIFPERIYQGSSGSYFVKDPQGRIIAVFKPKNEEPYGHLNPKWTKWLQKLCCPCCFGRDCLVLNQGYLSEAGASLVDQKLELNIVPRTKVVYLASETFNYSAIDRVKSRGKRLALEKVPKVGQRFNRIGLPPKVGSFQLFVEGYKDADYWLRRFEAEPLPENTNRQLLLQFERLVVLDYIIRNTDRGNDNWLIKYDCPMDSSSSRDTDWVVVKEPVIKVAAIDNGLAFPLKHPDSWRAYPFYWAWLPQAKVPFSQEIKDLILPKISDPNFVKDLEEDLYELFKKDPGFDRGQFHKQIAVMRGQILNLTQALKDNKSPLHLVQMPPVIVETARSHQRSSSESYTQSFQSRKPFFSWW
UniProt Q969N2: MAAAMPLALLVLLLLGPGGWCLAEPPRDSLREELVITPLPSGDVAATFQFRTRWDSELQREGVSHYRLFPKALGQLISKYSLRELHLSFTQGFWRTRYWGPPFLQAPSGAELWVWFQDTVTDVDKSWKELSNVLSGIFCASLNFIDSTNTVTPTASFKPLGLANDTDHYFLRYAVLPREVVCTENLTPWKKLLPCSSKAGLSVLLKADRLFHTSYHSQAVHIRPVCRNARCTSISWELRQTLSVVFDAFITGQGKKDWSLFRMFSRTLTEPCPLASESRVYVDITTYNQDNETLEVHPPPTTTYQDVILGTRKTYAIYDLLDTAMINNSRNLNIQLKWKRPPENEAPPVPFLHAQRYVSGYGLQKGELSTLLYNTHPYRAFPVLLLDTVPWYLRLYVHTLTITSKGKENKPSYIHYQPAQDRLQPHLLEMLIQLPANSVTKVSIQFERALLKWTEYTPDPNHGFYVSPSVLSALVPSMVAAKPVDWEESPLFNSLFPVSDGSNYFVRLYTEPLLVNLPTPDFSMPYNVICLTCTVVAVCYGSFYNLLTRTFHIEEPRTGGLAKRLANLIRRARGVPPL
UniProt P12273: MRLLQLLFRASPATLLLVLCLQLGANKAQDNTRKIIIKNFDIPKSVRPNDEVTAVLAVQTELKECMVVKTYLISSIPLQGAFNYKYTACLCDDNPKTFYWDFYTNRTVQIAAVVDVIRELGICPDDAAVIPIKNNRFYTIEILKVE
UniProt Q9UG56: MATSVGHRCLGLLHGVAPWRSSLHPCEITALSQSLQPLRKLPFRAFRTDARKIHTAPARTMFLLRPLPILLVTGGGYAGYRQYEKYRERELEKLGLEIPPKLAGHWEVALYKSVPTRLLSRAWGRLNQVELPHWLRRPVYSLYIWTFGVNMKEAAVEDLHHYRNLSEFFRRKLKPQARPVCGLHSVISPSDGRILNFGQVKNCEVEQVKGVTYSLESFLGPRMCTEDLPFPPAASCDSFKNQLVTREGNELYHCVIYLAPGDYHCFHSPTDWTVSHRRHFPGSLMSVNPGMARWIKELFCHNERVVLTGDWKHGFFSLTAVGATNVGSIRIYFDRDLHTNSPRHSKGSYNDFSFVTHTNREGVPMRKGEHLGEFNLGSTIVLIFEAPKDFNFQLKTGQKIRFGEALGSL
UniProt O00625: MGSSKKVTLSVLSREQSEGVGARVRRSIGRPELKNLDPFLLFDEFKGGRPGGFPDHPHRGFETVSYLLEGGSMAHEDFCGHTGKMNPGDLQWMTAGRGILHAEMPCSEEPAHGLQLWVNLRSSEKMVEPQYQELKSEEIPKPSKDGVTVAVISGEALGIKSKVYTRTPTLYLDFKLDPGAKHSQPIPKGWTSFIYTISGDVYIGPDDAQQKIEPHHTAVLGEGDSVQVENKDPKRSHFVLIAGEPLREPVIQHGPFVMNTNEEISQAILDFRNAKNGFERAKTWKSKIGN
UniProt Q7RTV0, whole entry, looked up: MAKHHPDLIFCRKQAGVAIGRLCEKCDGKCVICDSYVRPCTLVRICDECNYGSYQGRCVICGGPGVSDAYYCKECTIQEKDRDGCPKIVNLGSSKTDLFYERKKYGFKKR
UniProt P46019: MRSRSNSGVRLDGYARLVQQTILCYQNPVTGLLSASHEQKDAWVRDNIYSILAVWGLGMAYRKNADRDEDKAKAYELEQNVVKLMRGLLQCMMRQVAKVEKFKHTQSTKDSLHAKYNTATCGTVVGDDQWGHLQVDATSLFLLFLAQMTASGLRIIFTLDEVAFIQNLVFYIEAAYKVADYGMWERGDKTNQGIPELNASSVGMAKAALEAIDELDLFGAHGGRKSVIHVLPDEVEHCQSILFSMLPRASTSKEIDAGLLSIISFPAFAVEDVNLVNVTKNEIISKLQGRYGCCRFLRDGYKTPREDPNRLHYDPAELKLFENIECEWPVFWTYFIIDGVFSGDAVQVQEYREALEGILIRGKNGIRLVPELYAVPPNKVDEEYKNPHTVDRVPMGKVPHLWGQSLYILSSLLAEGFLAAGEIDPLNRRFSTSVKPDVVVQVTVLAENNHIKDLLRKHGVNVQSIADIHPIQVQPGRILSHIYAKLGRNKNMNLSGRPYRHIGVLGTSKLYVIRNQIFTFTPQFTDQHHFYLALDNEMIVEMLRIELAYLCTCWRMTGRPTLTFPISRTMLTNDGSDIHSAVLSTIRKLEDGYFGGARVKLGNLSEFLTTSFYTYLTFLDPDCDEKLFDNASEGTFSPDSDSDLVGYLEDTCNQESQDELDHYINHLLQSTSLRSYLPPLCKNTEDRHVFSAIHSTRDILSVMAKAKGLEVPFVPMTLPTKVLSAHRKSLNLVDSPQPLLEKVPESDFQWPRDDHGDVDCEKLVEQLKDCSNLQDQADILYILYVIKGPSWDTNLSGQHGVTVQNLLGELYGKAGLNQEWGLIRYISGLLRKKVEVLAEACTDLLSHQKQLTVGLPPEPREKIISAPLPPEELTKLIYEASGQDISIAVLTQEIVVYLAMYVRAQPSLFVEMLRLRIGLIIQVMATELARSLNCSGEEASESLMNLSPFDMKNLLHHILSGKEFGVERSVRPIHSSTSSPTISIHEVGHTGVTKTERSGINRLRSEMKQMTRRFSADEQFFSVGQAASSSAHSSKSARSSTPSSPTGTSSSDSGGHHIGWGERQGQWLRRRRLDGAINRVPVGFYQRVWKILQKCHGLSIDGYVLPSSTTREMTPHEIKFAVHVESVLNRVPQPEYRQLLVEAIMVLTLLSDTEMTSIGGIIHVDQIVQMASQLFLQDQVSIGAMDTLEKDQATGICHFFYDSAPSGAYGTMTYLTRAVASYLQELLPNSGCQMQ
UniProt P42338: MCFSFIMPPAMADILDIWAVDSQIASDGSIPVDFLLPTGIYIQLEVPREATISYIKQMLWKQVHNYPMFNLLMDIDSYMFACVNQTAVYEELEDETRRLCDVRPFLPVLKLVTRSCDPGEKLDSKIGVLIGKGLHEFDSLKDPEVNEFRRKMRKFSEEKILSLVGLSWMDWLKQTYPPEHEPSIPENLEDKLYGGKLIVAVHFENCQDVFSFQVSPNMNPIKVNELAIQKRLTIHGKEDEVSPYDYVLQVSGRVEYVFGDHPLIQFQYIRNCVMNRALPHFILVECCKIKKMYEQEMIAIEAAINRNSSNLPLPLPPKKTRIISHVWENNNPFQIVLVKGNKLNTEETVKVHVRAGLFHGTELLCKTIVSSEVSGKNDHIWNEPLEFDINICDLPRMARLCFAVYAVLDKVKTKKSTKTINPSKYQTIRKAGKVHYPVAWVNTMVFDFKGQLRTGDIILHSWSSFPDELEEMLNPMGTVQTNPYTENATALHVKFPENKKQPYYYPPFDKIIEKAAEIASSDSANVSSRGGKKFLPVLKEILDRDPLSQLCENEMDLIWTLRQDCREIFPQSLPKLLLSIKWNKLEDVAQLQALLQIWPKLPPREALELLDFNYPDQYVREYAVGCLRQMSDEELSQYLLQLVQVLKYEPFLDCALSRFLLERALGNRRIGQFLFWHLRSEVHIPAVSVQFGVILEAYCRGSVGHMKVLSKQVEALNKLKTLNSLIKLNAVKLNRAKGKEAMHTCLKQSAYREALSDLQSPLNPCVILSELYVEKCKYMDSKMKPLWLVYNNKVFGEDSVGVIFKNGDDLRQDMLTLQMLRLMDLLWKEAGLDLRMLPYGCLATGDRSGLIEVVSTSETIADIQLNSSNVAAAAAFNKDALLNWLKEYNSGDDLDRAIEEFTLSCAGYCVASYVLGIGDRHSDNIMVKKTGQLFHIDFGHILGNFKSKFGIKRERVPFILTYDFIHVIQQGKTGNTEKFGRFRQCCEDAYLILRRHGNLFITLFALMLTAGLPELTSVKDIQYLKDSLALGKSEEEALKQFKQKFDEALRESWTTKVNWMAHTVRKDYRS
UniProt P42336, whole entry, looked up: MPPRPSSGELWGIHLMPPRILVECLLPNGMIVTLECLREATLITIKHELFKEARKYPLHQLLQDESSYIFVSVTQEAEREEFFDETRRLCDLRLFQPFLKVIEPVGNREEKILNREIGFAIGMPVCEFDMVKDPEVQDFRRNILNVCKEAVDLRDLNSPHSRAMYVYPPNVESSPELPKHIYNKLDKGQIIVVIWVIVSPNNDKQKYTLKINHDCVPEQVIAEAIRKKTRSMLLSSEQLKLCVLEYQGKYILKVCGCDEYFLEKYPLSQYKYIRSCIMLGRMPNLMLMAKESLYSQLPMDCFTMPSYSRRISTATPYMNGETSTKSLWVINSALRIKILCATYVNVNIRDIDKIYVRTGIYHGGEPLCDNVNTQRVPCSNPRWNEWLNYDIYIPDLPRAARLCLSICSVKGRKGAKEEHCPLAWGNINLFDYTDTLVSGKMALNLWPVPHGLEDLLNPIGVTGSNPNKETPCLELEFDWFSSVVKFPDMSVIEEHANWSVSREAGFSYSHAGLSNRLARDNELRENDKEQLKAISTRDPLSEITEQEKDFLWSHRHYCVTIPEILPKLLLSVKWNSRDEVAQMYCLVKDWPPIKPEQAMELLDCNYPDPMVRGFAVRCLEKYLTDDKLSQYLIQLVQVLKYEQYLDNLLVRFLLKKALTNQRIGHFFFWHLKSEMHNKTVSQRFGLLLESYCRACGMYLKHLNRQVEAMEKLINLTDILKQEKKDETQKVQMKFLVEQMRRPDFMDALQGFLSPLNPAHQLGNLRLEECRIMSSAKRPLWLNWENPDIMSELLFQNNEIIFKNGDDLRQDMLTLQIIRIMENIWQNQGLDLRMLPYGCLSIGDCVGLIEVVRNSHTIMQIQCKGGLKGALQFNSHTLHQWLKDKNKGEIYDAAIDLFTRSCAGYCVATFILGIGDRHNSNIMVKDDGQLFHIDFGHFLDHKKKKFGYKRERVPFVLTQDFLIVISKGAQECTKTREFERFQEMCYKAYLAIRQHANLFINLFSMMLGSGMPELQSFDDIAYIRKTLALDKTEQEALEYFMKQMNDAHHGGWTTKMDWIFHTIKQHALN
UniProt Q9Y237, whole entry, looked up: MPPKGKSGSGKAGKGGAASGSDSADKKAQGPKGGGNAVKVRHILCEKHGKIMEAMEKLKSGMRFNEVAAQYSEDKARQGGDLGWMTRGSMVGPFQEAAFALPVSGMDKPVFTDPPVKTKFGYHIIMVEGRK
UniProt Q96S99: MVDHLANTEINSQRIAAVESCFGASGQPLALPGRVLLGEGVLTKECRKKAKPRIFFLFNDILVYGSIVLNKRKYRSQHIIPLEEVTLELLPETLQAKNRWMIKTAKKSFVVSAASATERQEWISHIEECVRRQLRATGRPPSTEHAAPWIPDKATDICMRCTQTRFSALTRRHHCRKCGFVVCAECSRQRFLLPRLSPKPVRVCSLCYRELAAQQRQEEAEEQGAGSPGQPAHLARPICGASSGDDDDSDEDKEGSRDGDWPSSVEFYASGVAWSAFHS

Tests used:
Experiment in all cases: log2 fold change, soluble protein after heating vs DMSO (PISA); higher = thermal stabilisation; K562 lysate, 10 uM; active = over 0.2 and 3.5 SD of the protein, either way, in both replicates (recomputed)
erlotinib = compound: C#Cc1cccc(Nc2ncnc3cc(OCCOC)c(OCCOC)cc23)c1 [erlotinib]
How it was run: (§1)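 The values are log-two fold changes in thermal stability compared with solvent controls and come from duplicates. They were obtained by TMTpro 16plex LC-MS/MS, with channel sums equalised, on the supernatant after 21,000xg for 90 min. That supernatant came from crude K562 extract at 1 mg/mL protein treated with 10 μM compound for 30 min, heated for 3 min across 48°C-58°C, pooled and brought to 0.5% NP-40 at 4°C.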

[1] = compound: C/C(=N\NC(=O)C1=CC(=CC=C1)S(=O)(=O)N2CCOCC2)/C3=C(C=CC(=C3)Cl)O
How it was run: as §1

[2] = compound: C1=CC(=CC=C1C2=NC3=C(N2)C=C(C=C3)C(=O)N)OC4=CC=C(C=C4)Cl
How it was run: as §1

[3] = compound: C1=CC2=C(C=CC(=C2)/C=C\3/C(=O)NC(=NCC4=CC=CS4)S3)N=C1
How it was run: as §1

[4] = compound: C1=CC2=NC=CN=C2C=C1/C=C/3\C(=O)NC(=O)S3
How it was run: as §1

[5] = compound: C1=CC=C(C=C1)C2=NC(=C(N2)C3=CC=NC=C3)C4=CC(=C(C=C4)Cl)O
How it was run: as §1

[6] = compound: C1=CC=C2C(=C1)C3=NNC4=CC=CC(=C43)C2=O
How it was run: as §1

[7] = compound: C1CCN(C1)C(=O)NC2=CC=CC(=C2)NC3=NC=C(C(=N3)NCCC4=CN=CN4)Br
How it was run: as §1

[8] = compound: C1CN(CCC1(CC2=CC=C(C=C2)Cl)N)C3=NC=NC4=C3C=CN4
How it was run: as §1

IRAK-1-4 Inhibitor I = compound: C1COCCN1CCN2C3=CC=CC=C3N=C2NC(=O)C4=CC(=CC=C4)[N+](=O)[O-] [IRAK-1-4 Inhibitor I]
How it was run: as §1

Measured: log2 fold change

PIN1 (UniProt Q13526)
inactive: erlotinib -0.014 | [1] 0.034 | [2] 0.043 | [3] -0.025 | [4] 0.017 | [5] 0.051 | [6] -0.037 | [7] 0.013 | [8] -0.015 | IRAK-1-4 Inhibitor I 0.019

PKN1 isoform 2 (UniProt Q16512)
inactive: erlotinib -0.014 | [1] 0.007 | [2] 0.018 | [3] -0.048 | [4] -0.042 | [5] -0.004 | [6] -0.175 | [7] -0.191 | [8] -0.203 | IRAK-1-4 Inhibitor I -0.174

PIKFYVE (UniProt Q9Y2I7)
inactive: erlotinib -0.026 | [1] -0.008 | [2] -0.01 | [3] 0.005 | [4] -0.011 | [5] 0.03 | [6] -0.034 | [7] -0.039 | [8] 0.035 | IRAK-1-4 Inhibitor I -0.004

PIGS (UniProt Q96S52)
inactive: erlotinib 0.014 | [1] -0.037 | [2] -0.074 | [3] 0.004 | [4] 0.032 | [5] -0.038 | [6] -0.146 | [7] -0.038 | [8] 0.021 | IRAK-1-4 Inhibitor I 0.015

PI4K2A (UniProt Q9BTU6)
inactive: erlotinib -0.013 | [1] -0.005 | [2] -0.041 | [3] 0.021 | [4] -0.003 | [5] 0.02 | [6] 0.063 | [7] 0.002 | [8] 0.058 | IRAK-1-4 Inhibitor I 0.003

PIGT (UniProt Q969N2)
inactive: erlotinib 0.01 | [1] -0.022 | [2] -0.104 | [3] -0.013 | [4] 0.01 | [5] -0.014 | [6] -0.108 | [7] 0.031 | [8] 0.015 | IRAK-1-4 Inhibitor I 0.021

PIP (UniProt P12273)
inactive: erlotinib -0.135 | [1] 0.246 | [2] -0.58 | [3] -0.304 | [4] 0.21 | [5] 0.097 | [6] -0.263 | [7] -0.067 | [8] -0.759 | IRAK-1-4 Inhibitor I -0.367

PLEC (UniProt Q15149)
inactive: erlotinib 0.008 | [1] 0 | [2] -0.027 | [3] -0.027 | [4] -0.025 | [5] -0.051 | [6] -0.048 | [7] 0.006 | [8] -0.002 | IRAK-1-4 Inhibitor I -0.031

PIGK (UniProt Q92643)
inactive: erlotinib 0.035 | [1] 0.015 | [2] -0.034 | [3] 0.001 | [4] -0.012 | [5] -0.025 | [6] -0.126 | [7] -0.006 | [8] 0.097 | IRAK-1-4 Inhibitor I 0.027

PIK3R4 (UniProt Q99570)
inactive: erlotinib 0.065 | [1] -0.029 | [2] -0.037 | [3] 0.023 | [4] 0.044 | [5] 0.014 | [6] 0.006 | [7] -0.017 | [8] 0.016 | IRAK-1-4 Inhibitor I 0.046

PISD (UniProt Q9UG56)
inactive: erlotinib -0.046 | [1] 0.044 | [2] -0.075 | [3] -0.006 | [4] -0.094 | [5] -0.017 | [6] 0.052 | [7] 0.034 | [8] 0.003 | IRAK-1-4 Inhibitor I -0.013

PIR (UniProt O00625)
inactive: erlotinib 0.017 | [1] -0.212 | [2] 0.01 | [3] 0.034 | [4] -0.034 | [5] 0.006 | [6] 0.151 | [7] 0.014 | [8] 0.027 | IRAK-1-4 Inhibitor I -0.02

PLCG1 isoform 2 (UniProt P19174)
inactive: erlotinib 0.059 | [1] 0.246 | [2] -0.027 | [3] -0.036 | [4] 0.007 | [5] 0.009 | [6] -0.027 | [7] -0.011 | [8] 0.021 | IRAK-1-4 Inhibitor I 0.017

PKN2 (UniProt Q16513)
inactive: erlotinib -0.024 | [1] 0.009 | [2] 0.022 | [3] -0.115 | [4] -0.066 | [5] 0.021 | [6] -0.115 | [7] -0.13 | [8] -0.119 | IRAK-1-4 Inhibitor I -0.04

2 successive records out of the list so far, quoted:
PISD (UniProt Q9UG56)
inactive: erlotinib -0.046 | [1] 0.044 | [2] -0.075 | [3] -0.006 | [4] -0.094 | [5] -0.017 | [6] 0.052 | [7] 0.034 | [8] 0.003 | IRAK-1-4 Inhibitor I -0.013

PIR (UniProt O00625)
inactive: erlotinib 0.017 | [1] -0.212 | [2] 0.01 | [3] 0.034 | [4] -0.034 | [5] 0.006 | [6] 0.151 | [7] 0.014 | [8] 0.027 | IRAK-1-4 Inhibitor I -0.02

(list continues)

PHF5A (UniProt Q7RTV0)
inactive: erlotinib -0.02 | [1] 0.01 | [2] 0.054 | [3] -0.03 | [4] -0.026 | [5] 0.026 | [6] 0.045 | [7] 0.01 | [8] 0.037 | IRAK-1-4 Inhibitor I -0.014

PLCH1 (UniProt Q4KWH8)
inactive: erlotinib -0.022 | [1] 0.065 | [2] 0.006 | [3] 0.062 | [4] 0.044 | [5] 0.031 | [6] 0.032 | [7] -0.004 | [8] -0.13 | IRAK-1-4 Inhibitor I -0.041

PHKA2 (UniProt P46019)
inactive: erlotinib 0.048 | [1] -0.051 | [2] 0.032 | [3] 0.052 | [4] 0.044 | [5] -0.058 | [6] 0.012 | [7] 0.027 | [8] 0.033 | IRAK-1-4 Inhibitor I 0.03

PIP4P2 (UniProt Q8N4L2)
inactive: erlotinib 0.023 | [1] 0.039 | [2] -0.03 | [3] 0.032 | [4] -0.076 | [5] 0.019 | [6] -0.029 | [7] 0.034 | [8] 0.022 | IRAK-1-4 Inhibitor I -0.054

PHAX (UniProt Q9H814)
inactive: erlotinib -0.002 | [1] 0.009 | [2] 0.03 | [3] 0.025 | [4] -0.015 | [5] 0.029 | [6] -0.014 | [7] -0.028 | [8] 0.003 | IRAK-1-4 Inhibitor I 0.01

PIK3CB (UniProt P42338)
inactive: erlotinib -0.024 | [1] -0.014 | [2] -0.045 | [3] 0.159 | [4] 0.412 | [5] 0.019 | [6] 0.095 | [7] 0.002 | [8] 0.052 | IRAK-1-4 Inhibitor I 0.037

PIK3CA (UniProt P42336)
inactive: erlotinib -0.015 | [1] 0.066 | [2] 0.005 | [3] 0.021 | [4] 0.019 | [5] -0.086 | [6] -0.037 | [7] 0.013 | [8] -0.013 | IRAK-1-4 Inhibitor I -0.101

PIK3R2 (UniProt O00459)
inactive: erlotinib -0.022 | [1] -0.02 | [2] -0.008 | [3] 0.097 | [4] 0.251 | [5] -0.09 | [6] 0.047 | [7] 0.068 | [8] -0.059 | IRAK-1-4 Inhibitor I -0.01

PHRF1 (UniProt Q9P1Y6)
inactive: erlotinib 0 | [1] 0.018 | [2] -0.163 | [3] 0.05 | [4] 0.018 | [5] 0.055 | [6] -0.025 | [7] -0.053 | [8] -0.026 | IRAK-1-4 Inhibitor I -0.001

PLA2G4B isoform 6 (UniProt P0C869)
inactive: erlotinib 0.099 | [1] 0.064 | [2] 0.048 | [3] -0.099 | [4] 0.023 | [5] 0.062 | [6] -0.021 | [7] -0.011 | [8] 0.026 | IRAK-1-4 Inhibitor I 0.065

PIN4 isoform 2 (UniProt Q9Y237)
inactive: erlotinib -0.012 | [1] -0.003 | [2] 0.025 | [3] -0.031 | [4] -0.008 | [5] -0.021 | [6] 0.033 | [7] 0.033 | [8] 0.004 | IRAK-1-4 Inhibitor I 0.016

PIP4K2B (UniProt P78356)
inactive: erlotinib 0.038 | [1] -0.193 | [2] -0.021 | [3] 0.012 | [4] 0.096 | [5] 0.067 | [6] 0.013 | [7] 0.032 | [8] -0.02 | IRAK-1-4 Inhibitor I -0.019

PLEKHF1 (UniProt Q96S99)
inactive: erlotinib 0.027 | [1] 0.032 | [2] -0.067 | [3] 0.006 | [4] 0.05 | [5] 0.017 | [6] -0.019 | [7] -0.032 | [8] 0.029 | IRAK-1-4 Inhibitor I -0.024

PHF23 (UniProt Q9BUL5)
inactive: erlotinib -0.016 | [1] 0.007 | [2] -0.099 | [3] -0.018 | [4] -0.01 | [5] 0.005 | [6] -0.01 | [7] -0.065 | [8] -0.014 | IRAK-1-4 Inhibitor I 0.049

PINX1 (UniProt Q96BK5)
inactive: erlotinib 0 | [1] -0.158 | [2] 0.05 | [3] 0.305 | [4] -0.054 | [5] 0.015 | [6] -0.18 | [7] -0.136 | [8] -0.049 | IRAK-1-4 Inhibitor I -0.017
